Measured values as given in the supplement of paper PMC10849652.
The other results are listed elsewhere or left out.

Sequences of proteins named here, by UniProt entry; tags and fusion partners are left off. A change or cut given only in a name is not applied to a line headed by its entry.
UniProt P33992: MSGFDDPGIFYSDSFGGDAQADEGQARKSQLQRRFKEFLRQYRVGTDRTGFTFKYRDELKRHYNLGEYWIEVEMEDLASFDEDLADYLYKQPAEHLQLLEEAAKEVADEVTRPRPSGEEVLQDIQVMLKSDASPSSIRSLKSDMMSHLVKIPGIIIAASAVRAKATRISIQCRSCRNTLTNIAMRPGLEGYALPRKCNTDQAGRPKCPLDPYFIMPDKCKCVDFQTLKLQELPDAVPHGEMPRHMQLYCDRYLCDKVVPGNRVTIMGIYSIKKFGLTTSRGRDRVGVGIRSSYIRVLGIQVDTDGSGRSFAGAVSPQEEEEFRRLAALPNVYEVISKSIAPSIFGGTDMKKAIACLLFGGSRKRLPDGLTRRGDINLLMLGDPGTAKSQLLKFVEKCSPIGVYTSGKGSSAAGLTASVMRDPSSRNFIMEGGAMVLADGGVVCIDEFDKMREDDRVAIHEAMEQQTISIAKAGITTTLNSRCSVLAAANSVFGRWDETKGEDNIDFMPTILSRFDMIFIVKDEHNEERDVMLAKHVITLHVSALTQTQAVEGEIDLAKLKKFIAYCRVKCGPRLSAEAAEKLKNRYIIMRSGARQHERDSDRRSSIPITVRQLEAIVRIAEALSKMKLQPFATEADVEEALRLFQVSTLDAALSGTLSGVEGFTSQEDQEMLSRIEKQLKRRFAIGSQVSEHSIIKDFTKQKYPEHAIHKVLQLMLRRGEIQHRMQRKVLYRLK
UniProt Q8IVS2: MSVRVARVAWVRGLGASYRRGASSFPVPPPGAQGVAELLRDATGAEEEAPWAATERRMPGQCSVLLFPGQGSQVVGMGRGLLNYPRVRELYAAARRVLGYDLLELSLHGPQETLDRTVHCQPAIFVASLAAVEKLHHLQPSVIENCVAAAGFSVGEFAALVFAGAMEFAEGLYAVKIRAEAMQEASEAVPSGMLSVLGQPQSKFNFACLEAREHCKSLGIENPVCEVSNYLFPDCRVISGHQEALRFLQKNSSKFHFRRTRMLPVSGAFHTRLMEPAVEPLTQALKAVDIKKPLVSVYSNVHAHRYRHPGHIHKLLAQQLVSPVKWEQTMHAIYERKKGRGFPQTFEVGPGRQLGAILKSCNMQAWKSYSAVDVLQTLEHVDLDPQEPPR
UniProt Q93074, whole entry, looked up: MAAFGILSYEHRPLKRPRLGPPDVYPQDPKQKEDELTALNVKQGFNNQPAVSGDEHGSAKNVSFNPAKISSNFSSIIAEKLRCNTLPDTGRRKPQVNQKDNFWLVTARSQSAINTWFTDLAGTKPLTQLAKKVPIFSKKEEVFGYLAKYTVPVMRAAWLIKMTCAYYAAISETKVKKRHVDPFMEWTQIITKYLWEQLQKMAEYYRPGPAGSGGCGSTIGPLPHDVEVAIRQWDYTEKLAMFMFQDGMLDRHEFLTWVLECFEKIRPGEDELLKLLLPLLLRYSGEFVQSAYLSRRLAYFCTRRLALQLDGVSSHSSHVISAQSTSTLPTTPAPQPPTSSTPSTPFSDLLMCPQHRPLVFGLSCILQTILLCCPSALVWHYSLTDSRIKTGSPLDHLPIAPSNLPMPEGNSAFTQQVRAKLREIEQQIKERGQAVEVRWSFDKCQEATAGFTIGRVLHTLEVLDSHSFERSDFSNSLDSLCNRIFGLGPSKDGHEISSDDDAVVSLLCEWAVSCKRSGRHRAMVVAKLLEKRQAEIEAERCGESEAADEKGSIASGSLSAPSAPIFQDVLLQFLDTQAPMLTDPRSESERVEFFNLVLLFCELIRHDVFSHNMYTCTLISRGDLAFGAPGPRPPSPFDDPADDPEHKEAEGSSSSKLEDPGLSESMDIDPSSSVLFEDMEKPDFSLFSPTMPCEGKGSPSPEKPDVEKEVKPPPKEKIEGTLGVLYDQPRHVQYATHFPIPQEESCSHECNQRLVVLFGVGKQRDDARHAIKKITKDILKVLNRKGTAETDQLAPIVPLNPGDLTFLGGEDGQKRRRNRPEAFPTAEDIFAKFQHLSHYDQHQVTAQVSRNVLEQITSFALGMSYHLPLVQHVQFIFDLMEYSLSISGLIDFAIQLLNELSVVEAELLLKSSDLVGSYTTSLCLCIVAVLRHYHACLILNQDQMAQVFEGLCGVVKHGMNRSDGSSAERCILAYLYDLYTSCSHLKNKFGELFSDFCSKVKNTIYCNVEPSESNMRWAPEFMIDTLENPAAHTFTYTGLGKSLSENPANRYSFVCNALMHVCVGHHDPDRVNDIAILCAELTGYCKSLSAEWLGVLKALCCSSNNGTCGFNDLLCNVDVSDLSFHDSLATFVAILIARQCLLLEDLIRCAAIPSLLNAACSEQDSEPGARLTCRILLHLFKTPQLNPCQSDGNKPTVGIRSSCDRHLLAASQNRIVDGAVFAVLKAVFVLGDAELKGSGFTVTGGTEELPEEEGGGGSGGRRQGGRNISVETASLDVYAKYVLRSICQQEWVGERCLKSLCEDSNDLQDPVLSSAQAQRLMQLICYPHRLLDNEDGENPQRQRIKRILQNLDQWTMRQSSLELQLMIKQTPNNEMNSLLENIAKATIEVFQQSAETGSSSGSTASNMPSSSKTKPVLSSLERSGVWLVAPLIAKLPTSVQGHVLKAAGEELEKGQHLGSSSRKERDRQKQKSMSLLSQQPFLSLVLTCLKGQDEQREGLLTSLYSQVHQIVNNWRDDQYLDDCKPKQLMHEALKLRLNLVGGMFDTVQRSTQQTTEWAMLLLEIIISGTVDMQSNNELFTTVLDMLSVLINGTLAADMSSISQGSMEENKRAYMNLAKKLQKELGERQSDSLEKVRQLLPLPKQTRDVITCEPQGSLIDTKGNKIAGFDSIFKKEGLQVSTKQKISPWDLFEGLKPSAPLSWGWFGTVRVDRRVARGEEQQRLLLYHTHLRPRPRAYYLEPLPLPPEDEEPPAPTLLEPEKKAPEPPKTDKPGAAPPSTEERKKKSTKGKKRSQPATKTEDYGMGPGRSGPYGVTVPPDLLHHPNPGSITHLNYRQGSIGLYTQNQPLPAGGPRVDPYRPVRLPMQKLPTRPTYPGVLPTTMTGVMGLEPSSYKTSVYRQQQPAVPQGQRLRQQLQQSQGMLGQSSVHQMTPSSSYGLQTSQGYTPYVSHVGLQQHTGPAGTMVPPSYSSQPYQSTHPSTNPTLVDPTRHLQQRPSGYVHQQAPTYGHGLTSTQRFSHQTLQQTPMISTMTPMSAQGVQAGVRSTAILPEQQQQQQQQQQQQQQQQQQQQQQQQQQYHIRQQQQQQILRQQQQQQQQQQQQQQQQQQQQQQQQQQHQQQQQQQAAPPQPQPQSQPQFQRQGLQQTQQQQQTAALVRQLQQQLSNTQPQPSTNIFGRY
UniProt Q9BTE3: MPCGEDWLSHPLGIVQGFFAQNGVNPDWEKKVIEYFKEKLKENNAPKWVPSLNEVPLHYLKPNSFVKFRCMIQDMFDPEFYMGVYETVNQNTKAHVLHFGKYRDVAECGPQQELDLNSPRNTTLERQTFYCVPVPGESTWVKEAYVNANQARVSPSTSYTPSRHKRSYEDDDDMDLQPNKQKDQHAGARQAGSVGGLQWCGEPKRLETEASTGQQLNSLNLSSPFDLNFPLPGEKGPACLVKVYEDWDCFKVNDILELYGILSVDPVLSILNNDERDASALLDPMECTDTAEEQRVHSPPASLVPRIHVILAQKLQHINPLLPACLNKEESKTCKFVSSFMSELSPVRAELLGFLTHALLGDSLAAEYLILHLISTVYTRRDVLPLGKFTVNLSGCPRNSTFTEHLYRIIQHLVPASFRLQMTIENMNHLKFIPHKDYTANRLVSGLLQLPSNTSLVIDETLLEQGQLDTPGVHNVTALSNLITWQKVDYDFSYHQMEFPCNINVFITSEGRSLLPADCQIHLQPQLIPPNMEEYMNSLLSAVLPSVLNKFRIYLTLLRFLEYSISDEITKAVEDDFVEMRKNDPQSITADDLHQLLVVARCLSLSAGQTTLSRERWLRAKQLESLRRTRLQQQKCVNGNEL
UniProt O43513: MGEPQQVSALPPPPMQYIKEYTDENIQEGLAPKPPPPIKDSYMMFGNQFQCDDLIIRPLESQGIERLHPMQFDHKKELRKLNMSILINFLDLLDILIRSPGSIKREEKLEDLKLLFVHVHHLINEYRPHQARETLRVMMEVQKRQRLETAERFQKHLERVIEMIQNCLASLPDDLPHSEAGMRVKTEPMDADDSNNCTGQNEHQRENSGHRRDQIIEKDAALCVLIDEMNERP
UniProt Q9BUT9: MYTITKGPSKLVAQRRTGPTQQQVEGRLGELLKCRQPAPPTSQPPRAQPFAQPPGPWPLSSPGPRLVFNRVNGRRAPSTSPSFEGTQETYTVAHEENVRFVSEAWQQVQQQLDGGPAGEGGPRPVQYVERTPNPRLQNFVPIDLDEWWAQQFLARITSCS
UniProt Q9UBP6: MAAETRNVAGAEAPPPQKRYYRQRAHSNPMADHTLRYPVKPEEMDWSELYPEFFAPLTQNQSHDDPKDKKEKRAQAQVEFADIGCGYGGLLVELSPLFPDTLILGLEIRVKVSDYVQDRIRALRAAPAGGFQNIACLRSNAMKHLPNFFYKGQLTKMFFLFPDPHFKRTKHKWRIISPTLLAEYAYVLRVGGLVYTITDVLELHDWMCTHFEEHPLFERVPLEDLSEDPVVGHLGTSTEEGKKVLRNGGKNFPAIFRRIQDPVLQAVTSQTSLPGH
UniProt Q15528: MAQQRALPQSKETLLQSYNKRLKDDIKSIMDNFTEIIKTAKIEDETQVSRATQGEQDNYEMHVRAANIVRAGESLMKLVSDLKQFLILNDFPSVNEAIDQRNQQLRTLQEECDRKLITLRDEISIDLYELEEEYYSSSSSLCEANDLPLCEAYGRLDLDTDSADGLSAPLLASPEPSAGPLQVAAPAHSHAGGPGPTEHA
UniProt Q9NVC6: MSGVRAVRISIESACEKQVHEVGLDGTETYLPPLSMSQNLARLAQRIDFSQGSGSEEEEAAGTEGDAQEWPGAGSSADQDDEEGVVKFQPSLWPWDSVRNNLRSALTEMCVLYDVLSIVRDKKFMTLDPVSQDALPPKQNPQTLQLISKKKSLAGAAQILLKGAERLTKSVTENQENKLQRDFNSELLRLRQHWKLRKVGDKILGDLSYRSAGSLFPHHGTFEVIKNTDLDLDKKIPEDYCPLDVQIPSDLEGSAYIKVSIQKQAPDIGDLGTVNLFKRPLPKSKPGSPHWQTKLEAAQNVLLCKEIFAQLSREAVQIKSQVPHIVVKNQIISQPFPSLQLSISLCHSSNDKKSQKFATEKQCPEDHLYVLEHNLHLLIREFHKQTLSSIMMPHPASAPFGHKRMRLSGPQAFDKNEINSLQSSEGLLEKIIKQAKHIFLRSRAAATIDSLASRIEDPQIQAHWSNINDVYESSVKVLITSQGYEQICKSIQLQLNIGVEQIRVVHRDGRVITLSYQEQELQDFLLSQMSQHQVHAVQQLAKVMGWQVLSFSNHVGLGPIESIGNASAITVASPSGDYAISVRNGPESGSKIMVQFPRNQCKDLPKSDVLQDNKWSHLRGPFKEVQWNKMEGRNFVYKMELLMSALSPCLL
UniProt Q9ULC4: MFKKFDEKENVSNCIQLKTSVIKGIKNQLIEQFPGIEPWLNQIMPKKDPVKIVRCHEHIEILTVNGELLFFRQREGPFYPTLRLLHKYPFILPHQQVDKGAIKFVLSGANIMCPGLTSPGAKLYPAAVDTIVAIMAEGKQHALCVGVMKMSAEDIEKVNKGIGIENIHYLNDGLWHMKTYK
UniProt Q9H8H3: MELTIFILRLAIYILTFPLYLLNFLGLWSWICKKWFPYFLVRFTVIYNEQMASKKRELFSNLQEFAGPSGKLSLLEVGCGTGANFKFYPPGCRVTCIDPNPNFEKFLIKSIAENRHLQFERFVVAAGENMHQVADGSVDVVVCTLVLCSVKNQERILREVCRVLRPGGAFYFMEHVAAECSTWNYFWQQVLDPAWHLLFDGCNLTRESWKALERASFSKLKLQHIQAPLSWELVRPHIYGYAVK
UniProt Q9Y316: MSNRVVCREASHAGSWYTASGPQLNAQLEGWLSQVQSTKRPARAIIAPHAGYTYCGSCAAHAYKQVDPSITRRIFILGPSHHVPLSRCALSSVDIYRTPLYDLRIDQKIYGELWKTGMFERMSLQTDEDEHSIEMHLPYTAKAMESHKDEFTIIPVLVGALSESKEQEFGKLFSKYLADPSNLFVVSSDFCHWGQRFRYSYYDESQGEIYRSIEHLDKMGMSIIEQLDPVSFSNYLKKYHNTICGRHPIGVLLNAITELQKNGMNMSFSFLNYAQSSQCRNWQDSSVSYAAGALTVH
UniProt O95568: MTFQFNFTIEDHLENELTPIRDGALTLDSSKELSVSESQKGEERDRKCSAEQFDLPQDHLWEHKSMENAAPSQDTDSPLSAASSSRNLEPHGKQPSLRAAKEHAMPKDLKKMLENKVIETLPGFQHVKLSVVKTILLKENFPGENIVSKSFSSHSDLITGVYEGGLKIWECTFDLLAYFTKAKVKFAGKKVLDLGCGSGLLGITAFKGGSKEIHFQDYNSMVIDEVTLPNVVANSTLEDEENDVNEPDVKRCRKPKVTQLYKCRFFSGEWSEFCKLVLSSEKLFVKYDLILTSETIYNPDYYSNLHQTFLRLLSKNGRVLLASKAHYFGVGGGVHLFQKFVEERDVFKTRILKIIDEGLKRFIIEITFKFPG

Legend:
Experiment in all cases: log2 fold change, soluble protein after heating vs DMSO (PISA); higher = thermal stabilisation; K562 lysate, 10 uM; active = over 0.2 and 3.5 SD of the protein, either way, in both replicates (recomputed)
[1] = compound: CCCS(=O)(=O)Nc1ccc(F)c(C(=O)c2c[nH]c3ncc(-c4ccc(Cl)cc4)cc23)c1F [vemurafenib]
How it was run: (§1)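 Values give the log-two fold change in thermal stability against solvent controls, from duplicates. Crude K562 extract at 1 mg/mL protein, made by dounce homogenisation in PBS pH 7.4 with 1 mM MgCl2, was treated with 10 μM compound for 30 min. After 3 min heating across 48°C-58°C, aliquots were pooled, adjusted to 0.5% NP-40 at 4°C and centrifuged at 21,000xg for 90 min. The supernatant was measured by TMTpro 16plex LC-MS/MS with channel sums equalised.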

[2] = compound: CCCS(=O)(=O)Nc1ccc(F)c(C(=O)c2c[nH]c3ncc(Cl)cc23)c1F
How it was run: as §1

[3] = compound: CCN(CCCOc1ccc2c(Nc3cc(CC(=O)Nc4cccc(F)c4)[nH]n3)ncnc2c1)CCOP(=O)(O)O [barasertib]
How it was run: as §1

[4] = compound: CC[C@@H]1C(=O)N(C)c2cnc(Nc3ccc(C(=O)NC4CCN(C)CC4)cc3OC)nc2N1C1CCCC1
How it was run: as §1

[5] = compound: CC[C@@H]1C(=O)N(C)c2cnc(Nc3ccc(C(=O)N[C@H]4CC[C@H](N5CCN(CC6CC6)CC5)CC4)cc3OC)nc2N1C(C)C [volasertib]
How it was run: as §1

[6] = compound: CCn1c(C(=O)N(C2CC2)C2CC2)cc2c3c(ncn3C)c(Nc3cc(C)n(C)n3)nc21
How it was run: as §1

[7] = compound: CCn1cc(-c2ccnc3[nH]c(-c4cccc(CN(C)C)c4)cc23)c(-c2ccc(NC(=O)N(C)C)cc2)n1
How it was run: as §1

[8] = compound: CN1CCC(CNc2ccc3ncc(-c4cccc(OC(F)(F)F)c4)n3n2)CC1
How it was run: as §1

[9] = compound: CN1CCN(CCOc2cc(OC3CCOCC3)c3c(Nc4c(Cl)ccc5c4OCO5)ncnc3c2)CC1 [saracatinib]
How it was run: as §1

[10] = compound: CN1CCN(c2nc(C3=C(c4c[nH]c5ccccc45)C(=O)NC3=O)c3ccccc3n2)CC1 [sotrastaurin]
How it was run: as §1

[11] = compound: CN1CC[C@H](c2c(O)cc(O)c3c(=O)cc(-c4ccccc4Cl)oc23)[C@H](O)C1 [alvocidib]
How it was run: as §1

[12] = compound: CN1CCc2c(c3ccccc3n2Cc2ccc(C(=O)NO)cc2)C1 [Tubastatin A]
How it was run: as §1

[13] = compound: CNC(=O)C1=CC=CC=C1NC2=NC(=NC=C2Cl)NC3=C(C=C(C=C3)N4CCOCC4)OC
How it was run: as §1

[14] = compound: CNC(=O)c1ccc(Nc2ncc(C(F)(F)F)c(NCc3nccnc3N(C)S(C)(=O)=O)n2)cc1 [defactinib]
How it was run: as §1

[15] = compound: CNc1nc(-c2ccc3c(N)n[nH]c3c2)cc(N2C[C@@H](C(=O)NC3CCCCC3)CC[C@H]2C)n1
How it was run: as §1

[16] = compound: COC(=O)N[C@@H](C)CNc1nccc(-c2cn(C(C)C)nc2-c2cc(Cl)cc(NS(C)(=O)=O)c2F)n1 [encorafenib]
How it was run: as §1

[17] = compound: COC(=O)[C@H](CCSC)NC(=O)C1=C(C=C(C=C1)NC[C@H](CS)N)C2=CC=CC=C2
How it was run: as §1

[18] = compound: COc1cc(Nc2ncc3c(n2)-c2ccc(Cl)cc2C(c2c(F)cccc2OC)=NC3)ccc1C(=O)O [alisertib]
How it was run: as §1

[19] = compound: COc1cc2nc(-c3cc(F)ccc3O)nc(N[C@@H]3CNC[C@H]3C(C)(C)O)c2cc1OC
How it was run: as §1

[20] = compound: COc1cc2ncnc(Nc3ccc(F)c(Cl)c3)c2cc1OCCCN1CCOCC1 [gefitinib]
How it was run: as §1

Measured: log2 fold change

METAP1 (UniProt P53582)
inactive: [1] -0.034 | [2] 0 | [3] 0.004 | [4] -0.008 | [5] -0.028 | [6] -0.001 | [7] -0.27 | [8] 0.095 | [9] -0.044 | [10] -0.03 | [11] 0.012 | [12] 0.002 | [13] -0.013 | [14] -0.011 | [15] -0.015 | [16] -0.024 | [17] -0.179 | [18] -0.012 | [19] -0.003 | [20] 0.031

MCM5 (UniProt P33992)
inactive: [1] -0.027 | [2] 0.003 | [3] 0.022 | [4] -0.024 | [5] -0.004 | [6] 0.012 | [7] -0.013 | [8] -0.005 | [9] -0.021 | [10] 0.029 | [11] -0.011 | [12] 0.015 | [13] -0.001 | [14] 0.008 | [15] 0.029 | [16] -0.003 | [17] 0.098 | [18] 0.005 | [19] 0.002 | [20] -0.011

MCAT (UniProt Q8IVS2)
inactive: [1] -0.033 | [2] 0.063 | [3] -0.01 | [4] -0.026 | [5] -0.013 | [6] 0.007 | [7] -0.038 | [8] 0.046 | [9] -0.004 | [10] 0.019 | [11] 0.036 | [12] 0.004 | [13] 0.227 | [14] 0.037 | [15] -0.034 | [16] 0.035 | [17] 0.019 | [18] -0.029 | [19] 0.015 | [20] 0.07

MED12 isoform 2 (UniProt Q93074)
inactive: [1] -0.075 | [2] 0.005 | [3] 0.057 | [4] -0.012 | [5] -0.065 | [6] 0.037 | [7] 0.002 | [8] -0.066 | [9] 0.026 | [10] 0.022 | [11] -0.022 | [12] -0.161 | [13] -0.02 | [14] 0.029 | [15] -0.041 | [16] 0.028 | [17] 0.06 | [18] 0.016 | [19] -0.011 | [20] 0.027

MCRIP1 (UniProt I3L4Q0)
inactive: [1] -0.002 | [2] 0.005 | [3] 0.05 | [4] 0.05 | [5] 0.011 | [6] 0.028 | [7] 0.032 | [8] -0.023 | [9] 0.021 | [10] 0.055 | [11] 0.02 | [12] 0.055 | [13] 0.011 | [14] 0.032 | [15] -0.012 | [16] 0.024 | [17] -0.03 | [18] 0.03 | [19] -0.007 | [20] -0.037

MCMBP (UniProt Q9BTE3)
inactive: [1] -0.029 | [2] 0.019 | [3] -0.007 | [4] 0.006 | [5] -0.026 | [6] 0.043 | [7] 0.035 | [8] -0.032 | [9] 0.02 | [10] 0.015 | [11] 0.035 | [12] -0.078 | [13] 0.029 | [14] 0.041 | [15] -0.003 | [16] -0.001 | [17] 0.074 | [18] 0.005 | [19] 0 | [20] 0.011

MED7 (UniProt O43513)
inactive: [1] 0.153 | [2] -0.018 | [3] -0.083 | [4] -0.017 | [5] -0.025 | [6] 0.075 | [7] 0.035 | [8] 0.062 | [9] -0.025 | [10] 0.036 | [11] -0.058 | [12] 0.029 | [13] -0.012 | [14] 0.048 | [15] 0.06 | [16] 0.039 | [17] -0.311 | [18] -0.109 | [19] 0.04 | [20] -0.349

MCRIP2 (UniProt Q9BUT9)
inactive: [1] 0.069 | [2] -0.008 | [3] -0.005 | [4] 0.119 | [5] -0.013 | [6] -0.179 | [7] 0.062 | [8] -0.011 | [9] 0.125 | [10] -0.12 | [11] 0.014 | [12] -0.001 | [13] 0.032 | [14] 0.032 | [15] 0.061 | [16] -0.04 | [17] 0.034 | [18] -0.034 | [19] 0.044 | [20] -0.049

METTL1 (UniProt Q9UBP6)
inactive: [1] -0.049 | [2] -0.074 | [3] -0.031 | [4] 0.015 | [5] -0.028 | [6] 0 | [7] -0.027 | [8] 0.068 | [9] 0.029 | [10] 0.05 | [11] -0.024 | [12] -0.008 | [13] -0.016 | [14] 0.023 | [15] -0.035 | [16] -0.009 | [17] 0.058 | [18] -0.032 | [19] -0.013 | [20] 0

MED22 isoform 2 (UniProt Q15528)
inactive: [1] -0.037 | [2] 0.01 | [3] 0.12 | [4] 0 | [5] 0.058 | [6] -0.05 | [7] -0.025 | [8] -0.128 | [9] 0.014 | [10] -0.013 | [11] 0.051 | [12] 0.008 | [13] 0.026 | [14] 0.042 | [15] 0.017 | [16] 0.115 | [17] -0.079 | [18] 0.002 | [19] -0.021 | [20] -0.047

MED17 (UniProt Q9NVC6)
inactive: [1] 0.028 | [2] 0.007 | [3] 0.004 | [4] -0.023 | [5] -0.02 | [6] 0.002 | [7] -0.037 | [8] 0.013 | [9] 0.01 | [10] 0.031 | [11] -0.001 | [12] -0.093 | [13] 0.025 | [14] -0.035 | [15] -0.019 | [16] 0.03 | [17] -0.017 | [18] -0.012 | [19] 0.023 | [20] -0.015

Copied from the entries so far (3 entries):
MED12 isoform 2 (UniProt Q93074)
inactive: [1] -0.075 | [2] 0.005 | [3] 0.057 | [4] -0.012 | [5] -0.065 | [6] 0.037 | [7] 0.002 | [8] -0.066 | [9] 0.026 | [10] 0.022 | [11] -0.022 | [12] -0.161 | [13] -0.02 | [14] 0.029 | [15] -0.041 | [16] 0.028 | [17] 0.06 | [18] 0.016 | [19] -0.011 | [20] 0.027

MCRIP1 (UniProt I3L4Q0)
inactive: [1] -0.002 | [2] 0.005 | [3] 0.05 | [4] 0.05 | [5] 0.011 | [6] 0.028 | [7] 0.032 | [8] -0.023 | [9] 0.021 | [10] 0.055 | [11] 0.02 | [12] 0.055 | [13] 0.011 | [14] 0.032 | [15] -0.012 | [16] 0.024 | [17] -0.03 | [18] 0.03 | [19] -0.007 | [20] -0.037

MCMBP (UniProt Q9BTE3)
inactive: [1] -0.029 | [2] 0.019 | [3] -0.007 | [4] 0.006 | [5] -0.026 | [6] 0.043 | [7] 0.035 | [8] -0.032 | [9] 0.02 | [10] 0.015 | [11] 0.035 | [12] -0.078 | [13] 0.029 | [14] 0.041 | [15] -0.003 | [16] -0.001 | [17] 0.074 | [18] 0.005 | [19] 0 | [20] 0.011

(list continues)

MFN2 (UniProt O95140)
inactive: [1] 0.035 | [2] -0.024 | [3] 0.041 | [4] 0.038 | [5] -0.033 | [6] 0.049 | [7] 0.013 | [8] -0.035 | [9] -0.01 | [10] 0.045 | [11] -0.006 | [12] -0.107 | [13] 0.014 | [14] 0.058 | [15] -0.034 | [16] -0.016 | [17] -0.094 | [18] 0.004 | [19] 0.023 | [20] -0.019

MCTS1 isoform 3 (UniProt Q9ULC4)
inactive: [1] 0.022 | [2] 0.014 | [3] -0.064 | [4] -0.006 | [5] 0.009 | [6] -0.014 | [7] 0.209 | [8] -0.001 | [9] -0.01 | [10] -0.012 | [11] 0.012 | [12] 0.051 | [13] -0.012 | [14] -0.004 | [15] -0.002 | [16] -0.021 | [17] -0.04 | [18] 0 | [19] -0.03 | [20] -0.005

METTL7A (UniProt Q9H8H3)
inactive: [1] -0.08 | [2] 0.056 | [3] -0.123 | [4] -0.022 | [5] 0.226 | [6] -0.018 | [7] 0.014 | [8] 0.081 | [9] -0.028 | [10] -0.028 | [11] -0.079 | [12] 0.014 | [13] 0.003 | [14] 0.011 | [15] 0.041 | [16] -0.041 | [17] 0.151 | [18] -0.036 | [19] -0.01 | [20] -0.046

MEMO1 (UniProt Q9Y316)
inactive: [1] 0.014 | [2] -0.004 | [3] -0.02 | [4] 0.014 | [5] -0.01 | [6] 0.05 | [7] 0.003 | [8] -0.003 | [9] -0.061 | [10] -0.017 | [11] -0.012 | [12] -0.004 | [13] 0.02 | [14] -0.025 | [15] -0.043 | [16] -0.02 | [17] -0.044 | [18] -0.003 | [19] -0.022 | [20] -0.056

METTL18 (UniProt O95568)
inactive: [1] 0.024 | [2] 0.065 | [3] 0.155 | [4] -0.021 | [5] -0.008 | [6] -0.013 | [7] -0.027 | [8] 0.036 | [9] -0.019 | [10] 0.04 | [11] -0.035 | [12] -0.006 | [13] 0.025 | [14] 0.038 | [15] 0.083 | [16] 0.002 | [17] -0.057 | [18] 0.04 | [19] -0.021 | [20] -0.027
